Test results reported in patent US20060281118A1 (UNIVERSITY OF MEDICINE AND DENTISTRY OF NEW JERSEY, published 2006).
No constants are given. Whether binding was seen depends on the method and setting. For part of these data: Binding seen in cells or lysates may run through a third protein. Some results given as binding are weak or reduced against the parent protein; the word gives no strength. Where a sequence is shown, tags or fusion partners need not be part of it. Blank lines part the entries; values can stand above or below the binder they belong to.

How the values were obtained:
Rad4-HA (yeast) [1] = biological target: T1, Rad4-HA (yeast) (UniProt P14736); test: Mono-Q then Mono-S chromatography, immunoblot (FIGS. 3A-3C, lanes 15-18)
T1 sequence: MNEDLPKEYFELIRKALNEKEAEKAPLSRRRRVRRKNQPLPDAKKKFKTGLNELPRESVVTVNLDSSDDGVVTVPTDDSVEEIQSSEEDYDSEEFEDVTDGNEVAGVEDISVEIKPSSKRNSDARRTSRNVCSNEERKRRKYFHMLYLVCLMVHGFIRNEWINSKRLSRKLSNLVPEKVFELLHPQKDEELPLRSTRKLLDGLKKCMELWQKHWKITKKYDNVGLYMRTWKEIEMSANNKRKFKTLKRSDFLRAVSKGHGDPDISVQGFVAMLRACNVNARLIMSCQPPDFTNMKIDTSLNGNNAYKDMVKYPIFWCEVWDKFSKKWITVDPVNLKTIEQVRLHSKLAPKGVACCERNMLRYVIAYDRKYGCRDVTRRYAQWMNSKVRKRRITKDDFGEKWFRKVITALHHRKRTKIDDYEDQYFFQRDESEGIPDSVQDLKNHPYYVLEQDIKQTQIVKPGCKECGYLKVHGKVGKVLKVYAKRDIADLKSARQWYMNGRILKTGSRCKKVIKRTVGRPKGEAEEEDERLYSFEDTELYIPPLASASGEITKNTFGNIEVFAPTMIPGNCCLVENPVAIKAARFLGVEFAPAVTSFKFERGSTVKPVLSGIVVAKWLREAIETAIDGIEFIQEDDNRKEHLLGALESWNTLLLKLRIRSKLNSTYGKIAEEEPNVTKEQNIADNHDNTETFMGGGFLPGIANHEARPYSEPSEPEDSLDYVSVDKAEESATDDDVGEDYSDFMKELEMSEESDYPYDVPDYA

Rad4-HA (yeast) [2] = biological target: T1, Rad4-HA (yeast); test: column fractionation, glutathione-Sepharose capture of fractions, immunoblot (FIG. 3)
Rad4-HA (yeast) [3] = biological target: T1, Rad4-HA (yeast); test: gel filtration on Sephacryl S-200, immunoblot (FIGS. 3A-C, lane 2)
Rad4-HA (yeast) [4] = biological target: T1, Rad4-HA (yeast); test: co-purification (restated from Example 1)
Rad4-HA (yeast) [5] = biological target: T1, Rad4-HA (yeast); test: GST pull-down on glutathione-Sepharose from 35S-labelled yeast extracts, fluorography (FIG. 1A, lane 2)
Rad4-HA (yeast) [6] = biological target: T1, Rad4-HA (yeast); test: GST pull-down from 35S-labelled yeast extracts, SDS-PAGE and fluorography (FIG. 1A, lane 2)
[7] = biological target: T2, Irt1 fused to the activation domain of Gal4 (yeast) (UniProt P39955); test: yeast two-hybrid
T2 sequence (looked up): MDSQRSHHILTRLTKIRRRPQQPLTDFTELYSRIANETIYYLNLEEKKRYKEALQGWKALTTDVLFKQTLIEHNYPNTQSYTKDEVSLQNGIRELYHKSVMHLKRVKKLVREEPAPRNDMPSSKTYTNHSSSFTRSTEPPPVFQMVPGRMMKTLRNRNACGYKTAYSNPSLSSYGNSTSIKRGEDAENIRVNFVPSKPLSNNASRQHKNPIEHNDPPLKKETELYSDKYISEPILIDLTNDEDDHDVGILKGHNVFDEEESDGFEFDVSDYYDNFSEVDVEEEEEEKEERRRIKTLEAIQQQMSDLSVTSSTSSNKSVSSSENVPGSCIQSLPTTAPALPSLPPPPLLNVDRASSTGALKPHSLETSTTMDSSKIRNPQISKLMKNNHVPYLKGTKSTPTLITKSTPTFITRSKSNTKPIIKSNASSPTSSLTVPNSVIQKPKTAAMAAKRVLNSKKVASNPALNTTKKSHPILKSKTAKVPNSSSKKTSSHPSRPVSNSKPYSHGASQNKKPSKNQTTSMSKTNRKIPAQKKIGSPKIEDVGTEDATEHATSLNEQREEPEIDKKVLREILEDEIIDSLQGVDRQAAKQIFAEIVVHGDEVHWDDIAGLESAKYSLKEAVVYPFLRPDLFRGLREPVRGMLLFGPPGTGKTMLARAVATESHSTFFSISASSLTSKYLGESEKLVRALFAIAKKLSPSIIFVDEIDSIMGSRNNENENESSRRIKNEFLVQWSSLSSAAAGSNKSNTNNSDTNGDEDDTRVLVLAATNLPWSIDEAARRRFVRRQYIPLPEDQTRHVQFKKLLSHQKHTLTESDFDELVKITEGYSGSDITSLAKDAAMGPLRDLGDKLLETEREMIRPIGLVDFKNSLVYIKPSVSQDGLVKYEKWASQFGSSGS

[8] = biological target: T2, Irt1 fused to the activation domain of Gal4 (yeast); test: yeast two-hybrid screen
[9] = biological target: T2, Irt1 fused to the activation domain of Gal4 (yeast); test: yeast two-hybrid, β-galactosidase reporter (FIG. 12)

binding (Rad4-HA (yeast) [1]): binds
binding (Rad4-HA (yeast) [2]): binds
binding (Rad4-HA (yeast) [3]): binds
binding (Rad4-HA (yeast) [4]): binds
binding (Rad4-HA (yeast) [5]): binds
binding (Rad4-HA (yeast) [6]): binds
B1: GST-Rad23 (protein, Saccharomyces cerevisiae, UniProt P32628 1-398, looked up, not shown: a dimerising Fc or GST)
chain: MVSLTFKNFKKEKVPLDLEPSNTILETKTKLAQSISCEESQIKLIYSGKVLQDSKTVSECGLKDGDQVVFMVSQKKSTKTKVTEPPIAPESATTPGRENSTEASPSTDASAAPAATAPEGSQPQEEQTATTERTESASTPGFVVGTERNETIERIMEMGYQREEVERALRAAFNNPDRAVEYLLMGIPENLRQPEPQQQTAAAAEQPSTAATTAEQPAEDDLFAQAAQGGNASSGALGTTGGATDAAQGGPPGSIGLTVEDLLSLRQVVSGNPEALAPLLENISARYPQLREHIMANPEVFVSMLLEAVGDNMQDVMEGADDMVEGEDIEVTGEAAAAGLGQGEGEGSFQVDYTPEDDQAISRLCELGFERDLVIQVYFACDKNEEAAANILFSDHAD

binding [7]: binds
binding [8]: binds
binding [9]: binds
B2: lexA-Rad23p (protein, Saccharomyces cerevisiae, UniProt P32628 1-398, looked up, not shown: large carriers)
chain: B1 chain
